Results are given in words; binding and its absence hold for the method and conditions named. In cells and extracts the contact can be indirect. A yes stands for co-enrichment or nearness to the bait. Other partners may have been found.
T1: SNO-CoA Reductase 2 (SCoR2; product of the Akr1a1 gene) (mouse (endogenous in mouse heart)) (UniProt Q9JII6)
T1 sequence: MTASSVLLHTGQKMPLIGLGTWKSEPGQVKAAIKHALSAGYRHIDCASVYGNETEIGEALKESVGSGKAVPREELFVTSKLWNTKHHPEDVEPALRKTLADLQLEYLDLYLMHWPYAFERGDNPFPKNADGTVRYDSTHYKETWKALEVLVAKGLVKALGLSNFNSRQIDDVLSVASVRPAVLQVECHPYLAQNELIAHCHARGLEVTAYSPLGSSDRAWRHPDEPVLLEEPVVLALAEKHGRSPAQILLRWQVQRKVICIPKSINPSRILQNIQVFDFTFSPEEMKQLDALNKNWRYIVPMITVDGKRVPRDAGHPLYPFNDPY

Amino acid sequences for entries named in this document (tags omitted).
UniProt P52480: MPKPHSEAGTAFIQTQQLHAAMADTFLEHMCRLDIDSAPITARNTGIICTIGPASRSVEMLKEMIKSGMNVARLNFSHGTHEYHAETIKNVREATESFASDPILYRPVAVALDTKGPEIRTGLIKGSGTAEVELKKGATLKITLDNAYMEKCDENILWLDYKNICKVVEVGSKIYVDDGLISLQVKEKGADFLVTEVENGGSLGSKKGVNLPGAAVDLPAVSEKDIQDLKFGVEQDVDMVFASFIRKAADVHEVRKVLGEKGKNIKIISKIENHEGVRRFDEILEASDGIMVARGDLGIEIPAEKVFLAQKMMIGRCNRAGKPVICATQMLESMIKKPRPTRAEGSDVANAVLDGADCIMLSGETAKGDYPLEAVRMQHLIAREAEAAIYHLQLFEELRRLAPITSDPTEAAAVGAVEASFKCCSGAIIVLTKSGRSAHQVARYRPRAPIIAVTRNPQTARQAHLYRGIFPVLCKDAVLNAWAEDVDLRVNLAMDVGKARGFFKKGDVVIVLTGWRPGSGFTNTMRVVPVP


Target: T1, SNO-CoA Reductase 2 (SCoR2; product of the Akr1a1 gene) (mouse (endogenous in mouse heart))
Experiment: affinity purification with mass spectrometry; co-immunoprecipitation with 10 ug anti-SCoR2/Akr1a1 antibody (15054-1-AP, Proteintech) from untreated wild type mouse heart lysate in non-denaturing lysis buffer (20mM Tris-HCl pH 8.0, 137mM NaCl, 1% NP-40, 2mM EDTA), 2 hours at room temperature, protein A/G magnetic beads, elution with 0.1M glycine pH 2.0, LC-MS/MS

| binding | Molecule |
| --- | --- |
| binds | pyruvate kinase M2 (PKM2) (from UniProt P52480 1-531) (enzyme) |
| binds | β-hydroxybutyrate dehydrogenase (BDH1) (enzyme, UniProt Q80XN0 47-343) ASQADAASGKAILITGCDSGFGFSLAKHLHSKGFLVFAGCLMKDKGDAGVKELDSLKSDRLRTIQLNVCNSEEVEKAVETIRSGLKDPEKGMWGLVNNAGISTFGEVEFTSMETYKEVAEVNLWGTVRTTKSFLPLLRRAKGRVVNISSMLGRMANPARSPYCITKFGIEAFSDCLRYEMHPLGVKVSVVEPGNFIAATSLYSPERIQAIAKKMWDDLPEVVRKDYGRKYFDEKIAKMETYCNSGSTDTSSVINAVTHALTAATPYTRYHPMDYYWWLRMQIMTHFPGAISDKIYIH |
